Source: PMC7819943, “Rice protein-binding microarrays: a tool to detect cis-acting elements near promoter regions in rice”
Some of the results follow.

Protein sequences, listed by entry. Tags and fused reporters are not part of them.
UniProt Q0JBA9, entry or part of it: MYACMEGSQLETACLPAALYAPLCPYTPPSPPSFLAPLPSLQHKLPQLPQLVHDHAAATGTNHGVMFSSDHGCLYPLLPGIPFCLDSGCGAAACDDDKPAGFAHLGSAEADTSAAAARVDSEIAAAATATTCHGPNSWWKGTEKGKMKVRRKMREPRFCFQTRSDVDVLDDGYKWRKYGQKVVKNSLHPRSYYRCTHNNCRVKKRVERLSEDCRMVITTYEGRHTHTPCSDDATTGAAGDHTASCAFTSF

Target: OsWRKY34 (Oryza sativa, UniProt Q0JBA9 1-250)
Assay: protein-binding microarray (RPBM); PBS, 2% BSA, 51.3 ng/ul salmon testes DNA, 50 uM zinc acetate, 200 nM TF, 25 C, 1 h; high values mean tight binding
Conditions: protein: recombinant; tags: N-terminal polyhistidine and DsRed monomer fusion (pET32a); label: CyDye5-dUTP incorporated in the synthesized complementary strand; 3' TTTTT single-stranded linker to array surface; dsDNA, one strand shown
Outline: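 For the binding signal, per-feature fluorescence intensity was read in arbitrary units on an Axon 4000B scanner. Before scanning, a 2% BSA-blocked custom Agilent array made double-stranded with Cy5-dUTP was washed after 1 h at 25 °C with 200 nM protein and 50 µM zinc acetate. The proteins were Ni–NTA-purified transcription factors with N-terminal polyhistidine and DsRed fusions, expressed in E. coli BL21-CodonPlus.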

| Sequence | binding signal |
| --- | --- |
| TTCTTTTTCTTTTTCTTTTTGTTTTTGGTGGACATAAATTCGGAGTCACCTAGTGCAG | 8800 fluorescence intensity (a.u.) |
| CGTGATGGTGTTATTTGGTTACATCGGTTTAGAACGGGTTCGGAGTCACCTAGTGCAG | 10200 fluorescence intensity (a.u.) |
| CAACGTTATTTTCCATTCCGCTCGTCGCTCCCACTCCTCTCGGAGTCACCTAGTGCAG | 9450 fluorescence intensity (a.u.) |
| GAGATCTCTCGTCACTCCACTGATTCACTCGCTAGCTAGCCGGAGTCACCTAGTGCAG | 8780 fluorescence intensity (a.u.) |
| TGCCAAAATTTCCAATTTATTTTTTTTTTGTTCATGATCTCGGAGTCACCTAGTGCAG | 8040 fluorescence intensity (a.u.) |
| GTCCACATTGTCCTTTGTGTCCCATCATCTTAGTTTTTTCCGGAGTCACCTAGTGCAG | 11100 fluorescence intensity (a.u.) |
| GTAGCTTTCCTCTCTGGATCGATCATATATATCACTATATCGGAGTCACCTAGTGCAG | 9880 fluorescence intensity (a.u.) |
| GACTCTAATATTCTCATGTTCCCAAATCCCACTTCCCACACGGAGTCACCTAGTGCAG | 10200 fluorescence intensity (a.u.) |
| CGTGGTTGTGGAGTAGATAAAAAAAGCCCGATCGGGCTGTCGGAGTCACCTAGTGCAG | 8620 fluorescence intensity (a.u.) |
| CGTCGTGTGTATATTGGTAAAAACTTGGACGACACCATAGCGGAGTCACCTAGTGCAG | 8180 fluorescence intensity (a.u.) |
| CTCTCTCTCGGTCTCATCAGTTTCTCACTCCACCGTTTTTCGGAGTCACCTAGTGCAG | 14300 fluorescence intensity (a.u.) |
| GCCGTGTGAATTTTTTTCTTATTCCTTTTCTTTTGAACGTCGGAGTCACCTAGTGCAG | 9500 fluorescence intensity (a.u.) |
| CATCGTATTCCGCGTGCATGCTTTTCAAACTGTTAAACAGCGGAGTCACCTAGTGCAG | 8240 fluorescence intensity (a.u.) |
| AGTAGATGGTGAACTTTGTATTAGATGGTTCCAGTTATCACGGAGTCACCTAGTGCAG | 8640 fluorescence intensity (a.u.) |
| CAGCCTTAGGGGTTGCCCTTCGCGGTTCGGGCTGACGTCACGGAGTCACCTAGTGCAG | 8090 fluorescence intensity (a.u.) |
| CTCCGCCGCCCCTATCACGCCTGCCGCTGCTGCTCCGCCGCGGAGTCACCTAGTGCAG | 8540 fluorescence intensity (a.u.) |
| AAACCAGCTCGACGGACACCACTACCTCCGCCAGCTCAATCGGAGTCACCTAGTGCAG | 8600 fluorescence intensity (a.u.) |
| CCCAAACAGCCACAGTTTGATACCGCTTCTTGTAGCATTTCGGAGTCACCTAGTGCAG | 8680 fluorescence intensity (a.u.) |
| ACCAACATCTAACTGTAACTCAACGTCCGGATACGTTTCTCGGAGTCACCTAGTGCAG | 8360 fluorescence intensity (a.u.) |
| TAGATGTCTCTCTCTTTTTTTTTGTGAGTTCGCTTACAAACGGAGTCACCTAGTGCAG | 8500 fluorescence intensity (a.u.) |
| GCCTGGACAAGTCTAACTACAACGGTAAAACCATTATCCACGGAGTCACCTAGTGCAG | 8150 fluorescence intensity (a.u.) |

| Sequence | binding signal |
| --- | --- |
| GTGCCATTCGCTGAGCTACAACATCATAGCGCCACTTACTCGGAGTCACCTAGTGCAG | 10000 fluorescence intensity (a.u.) |
| TCCAGGACCTCCACCCATCCAGATCCACAGCAACCACCACCGGAGTCACCTAGTGCAG | 9230 fluorescence intensity (a.u.) |
| CTCCTGTCAATTTCTATATATGCCTCTGCATGCTTTACCGCGGAGTCACCTAGTGCAG | 12100 fluorescence intensity (a.u.) |
| GTTGATAAAACAAAATTTTGCTTTGTTGTTTTGGATAAGACGGAGTCACCTAGTGCAG | 14000 fluorescence intensity (a.u.) |
| TATCCGTTTTATATTATAAAACTTTCTAGCATTGCCCACACGGAGTCACCTAGTGCAG | 8540 fluorescence intensity (a.u.) |
| CTATGGCTTCCTAGGATTATACTATTGTCATATTTTTTTTCGGAGTCACCTAGTGCAG | 10900 fluorescence intensity (a.u.) |
| CTCTACAATGGTTCTCCTACTACGTTTTTCGTTTCAAACTCGGAGTCACCTAGTGCAG | 8950 fluorescence intensity (a.u.) |
| GAGTTTATACTCTTTCTTTCACCATGTTGACTTTTTGCACCGGAGTCACCTAGTGCAG | 14100 fluorescence intensity (a.u.) |
| TTAGGAATGGAACAGACTGCAGAGTTTCTTGTTCAATATTCGGAGTCACCTAGTGCAG | 10200 fluorescence intensity (a.u.) |
| GTCACCTTTGCACAACATGAGCCAATCCCGCGCCCTCTCACGGAGTCACCTAGTGCAG | 8150 fluorescence intensity (a.u.) |
| CTTCCTACTGACCCAACTAACTTTATTATTTCTTCCTTCTCGGAGTCACCTAGTGCAG | 8270 fluorescence intensity (a.u.) |
| TTATCTAGGCCTGCCATCTATCGGTATGATCTAAAGCTCTCGGAGTCACCTAGTGCAG | 8170 fluorescence intensity (a.u.) |
| TTCCAGGCAGCCACTAATCCCAAACGCCTTTTTTTTTTCTCGGAGTCACCTAGTGCAG | 11100 fluorescence intensity (a.u.) |
| CCACCTGGACCATGCATCCTCTCTCTATCTCTATATAAGCCGGAGTCACCTAGTGCAG | 11600 fluorescence intensity (a.u.) |
| CAATTTTGAGAGCAGTTTTTGCTAACATGGCTCGTTGACCCGGAGTCACCTAGTGCAG | 8460 fluorescence intensity (a.u.) |
| CTACATTGGCACTCGTTTTCAGGATGGCGATGGCATCAATCGGAGTCACCTAGTGCAG | 10200 fluorescence intensity (a.u.) |
| GATGACACTAATCTCCATCCTAACACGCGTCGCTCTCACTCGGAGTCACCTAGTGCAG | 9460 fluorescence intensity (a.u.) |
| TTTAGTTTATCACCTATCTACTATCATACGGCATTTTTAGCGGAGTCACCTAGTGCAG | 8540 fluorescence intensity (a.u.) |
| TGTCACATCTATTCCAAGGATGTTTTTCTGCCCTACTTCTCGGAGTCACCTAGTGCAG | 9060 fluorescence intensity (a.u.) |
| AATTTCCACTCTTTCAGTGCTTTAACCAATTTTGTCAAATCGGAGTCACCTAGTGCAG | 11900 fluorescence intensity (a.u.) |
| AATTCTCTCATTTTCCACATTCACATTTCTTAAACGGTTACGGAGTCACCTAGTGCAG | 10100 fluorescence intensity (a.u.) |

Reformatted with bars between the fields: part of the list above
Sequence | binding signal
CCACCTGGACCATGCATCCTCTCTCTATCTCTATATAAGCCGGAGTCACCTAGTGCAG | 11600 fluorescence intensity (a.u.)
CAATTTTGAGAGCAGTTTTTGCTAACATGGCTCGTTGACCCGGAGTCACCTAGTGCAG | 8460 fluorescence intensity (a.u.)
